From patent US7803921B2, “Sulfotransferase 1E1 sequence variants” (Mayo Foundation for Medical Education and Research, priority 2002, dated 2010)

Sequences of proteins named here, by UniProt entry; tags and fusion partners are left off. A change or cut given only in a name is not applied to a line headed by its entry.
UniProt P49888: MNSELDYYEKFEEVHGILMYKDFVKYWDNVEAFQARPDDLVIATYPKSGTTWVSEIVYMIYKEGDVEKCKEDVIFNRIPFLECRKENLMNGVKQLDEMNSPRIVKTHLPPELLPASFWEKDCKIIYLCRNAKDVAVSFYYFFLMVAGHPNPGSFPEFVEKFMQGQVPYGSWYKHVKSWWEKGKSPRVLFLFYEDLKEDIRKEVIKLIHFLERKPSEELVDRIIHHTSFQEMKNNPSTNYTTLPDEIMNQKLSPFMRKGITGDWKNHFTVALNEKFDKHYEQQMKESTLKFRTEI

B1: Asp22Tyr: SULT1E1 allozyme with tyrosine in place of aspartic acid at residue 22 (thymine at nucleotide 64) (protein, UniProt P49888 1-294, looked up, variant D22Y)
Sulfotransferase 1E1: MNSELDYYEKFEEVHGILMYKYFVKYWDNVEAFQARPDDLVIATYPKSGTTWVSEIVYMIYKEGDVEKCKEDVIFNRIPFLECRKENLMNGVKQLDEMNSPRIVKTHLPPELLPASFWEKDCKIIYLCRNAKDVAVSFYYFFLMVAGHPNPGSFPEFVEKFMQGQVPYGSWYKHVKSWWEKGKSPRVLFLFYEDLKEDIRKEVIKLIHFLERKPSEELVDRIIHHTSFQEMKNNPSTNYTTLPDEIMNQKLSPFMRKGITGDWKNHFTVALNEKFDKHYEQQMKESTLKFRTEI
B2: Pro253His: SULT1E1 allozyme with histidine in place of proline at residue 253 (adenine at nucleotide 758) (protein, UniProt P49888 1-294, looked up, variant P253H)
Sulfotransferase 1E1: B1 Sulfotransferase 1E1 with Y22D, P253H
B3: Ala32Val: SULT1E1 allozyme with valine in place of alanine at residue 32 (thymine at nucleotide 95) (protein, UniProt P49888 1-294, looked up, variant A32V)
Sulfotransferase 1E1: B1 Sulfotransferase 1E1 with Y22D, A32V

Test system: SULT1E1
Experiment: Quantitative Western blot of immunoreactive SULT1E1 protein in COS-1 cytosolic extracts
Parameters: species or system human
Conditions: corrected for transfection efficiency, in words
Experimental: Quantitative Western blot analysis was performed using COS-1 cytosolic extracts containing recombinant SULT1E1 allozymes. The quantity of extracts loaded on 12.5% acrylamide gels was adjusted for each allozyme extract, so that each lane contained an equal quantity of β-galactosidase activity, i.e., gel loading was corrected for variation in transfection efficiency. The level of immunoreactive protein was measured using a rabbit polyclonal antibody directed against amino acids 1-13 of SULT1E1, with a cysteine residue added at the carboxy terminus. Properties of this antibody have been described elsewhere. See, Aksoy et al., (1994) Biochem. Biophys. Res. Commun. 200:1621-1629. Bound antibody was detected using the ECL system (Amersham Pharmacia, Piscataway, N.J.). An Ambis Radioanalytic Imaging System, Quant Probe Version 4.31 (Ambis, Inc., San Diego, Calif.) was used to quantitate immunoreactive protein in each lane, and the data were expressed as a percent of the intensity of the control wild type SULT1E1 protein band on that gel.

Molecule	level of immunoreactive SULT1E1 protein compared with wild type
B1	alterations in the level of protein
B2	no differences
B3	decreased level of immunoreactive protein

Where a chain is given by its changes, count along the chain named.
